Measurements: patent US20180147232A1
No constants are given. Whether binding was seen depends on the method and setting. In cells and extracts the contact can be indirect. Some entries that bind do so weakly or less than the wild type.

Sequences of proteins named here, by UniProt entry; tags and fusion partners are left off.
UniProt P49815: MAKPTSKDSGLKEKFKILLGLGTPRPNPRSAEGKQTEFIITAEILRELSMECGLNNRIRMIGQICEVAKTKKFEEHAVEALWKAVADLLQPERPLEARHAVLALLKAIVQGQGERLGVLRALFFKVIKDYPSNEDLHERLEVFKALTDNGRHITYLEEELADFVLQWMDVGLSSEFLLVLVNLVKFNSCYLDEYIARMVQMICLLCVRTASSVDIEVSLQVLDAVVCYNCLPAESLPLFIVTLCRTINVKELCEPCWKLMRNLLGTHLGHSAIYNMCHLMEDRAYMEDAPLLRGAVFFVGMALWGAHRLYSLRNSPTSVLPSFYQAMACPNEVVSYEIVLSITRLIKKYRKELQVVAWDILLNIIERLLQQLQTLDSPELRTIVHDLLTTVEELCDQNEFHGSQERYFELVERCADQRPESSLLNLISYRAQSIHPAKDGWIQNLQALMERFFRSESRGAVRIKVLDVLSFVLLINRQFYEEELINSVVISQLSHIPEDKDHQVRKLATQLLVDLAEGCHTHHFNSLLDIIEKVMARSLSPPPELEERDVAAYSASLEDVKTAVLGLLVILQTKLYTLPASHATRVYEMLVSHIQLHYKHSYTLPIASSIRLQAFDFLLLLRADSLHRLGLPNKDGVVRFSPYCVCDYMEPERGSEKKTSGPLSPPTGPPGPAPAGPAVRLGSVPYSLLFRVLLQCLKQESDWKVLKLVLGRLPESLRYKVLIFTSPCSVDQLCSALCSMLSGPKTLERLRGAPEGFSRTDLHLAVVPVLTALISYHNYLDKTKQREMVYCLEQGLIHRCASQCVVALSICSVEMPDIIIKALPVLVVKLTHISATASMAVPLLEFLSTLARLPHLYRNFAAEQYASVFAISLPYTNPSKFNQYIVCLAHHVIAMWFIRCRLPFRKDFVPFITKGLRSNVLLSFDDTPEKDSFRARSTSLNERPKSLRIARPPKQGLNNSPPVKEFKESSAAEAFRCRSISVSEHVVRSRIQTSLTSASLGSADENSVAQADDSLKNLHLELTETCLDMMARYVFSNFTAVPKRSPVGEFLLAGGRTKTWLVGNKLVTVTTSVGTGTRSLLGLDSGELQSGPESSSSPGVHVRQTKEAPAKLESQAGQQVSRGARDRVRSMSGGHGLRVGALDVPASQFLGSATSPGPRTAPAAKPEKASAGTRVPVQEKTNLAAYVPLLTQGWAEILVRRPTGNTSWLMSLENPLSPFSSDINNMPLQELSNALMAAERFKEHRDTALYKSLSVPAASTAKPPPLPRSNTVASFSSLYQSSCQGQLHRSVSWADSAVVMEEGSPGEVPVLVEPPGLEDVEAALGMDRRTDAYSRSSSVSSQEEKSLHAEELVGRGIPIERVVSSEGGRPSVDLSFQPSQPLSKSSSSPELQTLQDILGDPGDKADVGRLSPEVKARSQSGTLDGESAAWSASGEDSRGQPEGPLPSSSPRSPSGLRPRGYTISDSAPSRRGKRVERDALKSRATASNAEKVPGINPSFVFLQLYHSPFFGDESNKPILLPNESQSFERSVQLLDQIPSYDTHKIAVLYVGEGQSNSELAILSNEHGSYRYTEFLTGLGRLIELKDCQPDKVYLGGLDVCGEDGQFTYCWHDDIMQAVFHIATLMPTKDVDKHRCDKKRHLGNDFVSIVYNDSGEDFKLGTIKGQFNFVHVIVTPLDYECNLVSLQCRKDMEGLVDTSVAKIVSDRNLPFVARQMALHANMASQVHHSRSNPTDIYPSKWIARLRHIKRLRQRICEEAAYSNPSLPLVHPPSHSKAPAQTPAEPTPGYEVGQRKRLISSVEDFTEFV
UniProt O00141: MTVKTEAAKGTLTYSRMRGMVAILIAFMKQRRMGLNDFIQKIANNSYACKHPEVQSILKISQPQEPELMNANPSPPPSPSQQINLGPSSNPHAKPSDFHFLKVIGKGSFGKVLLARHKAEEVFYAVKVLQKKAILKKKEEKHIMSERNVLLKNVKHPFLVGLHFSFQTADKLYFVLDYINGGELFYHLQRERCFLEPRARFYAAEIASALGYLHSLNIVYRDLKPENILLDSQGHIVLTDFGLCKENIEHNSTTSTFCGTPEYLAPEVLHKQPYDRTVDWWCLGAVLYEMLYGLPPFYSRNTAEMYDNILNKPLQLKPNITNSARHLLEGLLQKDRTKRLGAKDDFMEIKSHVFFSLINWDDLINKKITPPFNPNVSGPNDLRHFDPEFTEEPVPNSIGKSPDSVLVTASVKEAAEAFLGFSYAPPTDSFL

Biological target: endogenous TSC2 (UniProt P49815)
Experiment: co-immunoprecipitation from JIMT1 lysate with sheep anti-SGK1 antibody S062D

For “endogenous SGK1 (from UniProt O00141 1-431) (enzyme)”, the binding was “binds”.
